Data taken from PMC8565353.

The chains behind the UniProt entries cited, without tags or fusion partners.
UniProt Q6P6C2: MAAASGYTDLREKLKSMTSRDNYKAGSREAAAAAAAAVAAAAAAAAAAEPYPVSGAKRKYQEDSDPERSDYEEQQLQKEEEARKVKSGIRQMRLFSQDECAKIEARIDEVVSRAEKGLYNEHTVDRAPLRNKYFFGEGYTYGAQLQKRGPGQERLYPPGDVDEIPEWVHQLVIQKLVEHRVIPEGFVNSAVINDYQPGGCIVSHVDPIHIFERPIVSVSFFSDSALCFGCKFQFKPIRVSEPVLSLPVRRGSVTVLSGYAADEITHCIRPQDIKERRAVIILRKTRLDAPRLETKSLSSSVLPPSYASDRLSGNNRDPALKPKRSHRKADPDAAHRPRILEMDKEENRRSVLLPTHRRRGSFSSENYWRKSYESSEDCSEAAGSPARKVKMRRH
UniProt Q13601: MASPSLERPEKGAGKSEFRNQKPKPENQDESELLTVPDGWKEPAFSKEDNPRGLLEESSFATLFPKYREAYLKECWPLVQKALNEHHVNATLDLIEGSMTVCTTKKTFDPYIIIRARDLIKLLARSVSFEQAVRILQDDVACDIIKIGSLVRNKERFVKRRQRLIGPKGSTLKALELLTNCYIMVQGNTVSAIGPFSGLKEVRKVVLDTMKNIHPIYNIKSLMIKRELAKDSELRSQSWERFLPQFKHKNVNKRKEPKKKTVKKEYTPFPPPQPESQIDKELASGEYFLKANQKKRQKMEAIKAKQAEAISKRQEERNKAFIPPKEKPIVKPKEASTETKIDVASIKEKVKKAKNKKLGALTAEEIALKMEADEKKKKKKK
UniProt P61326: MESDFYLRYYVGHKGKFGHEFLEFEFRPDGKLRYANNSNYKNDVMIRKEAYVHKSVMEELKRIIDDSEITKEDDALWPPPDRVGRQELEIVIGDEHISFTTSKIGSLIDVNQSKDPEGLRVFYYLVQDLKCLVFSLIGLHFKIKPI
UniProt P38919: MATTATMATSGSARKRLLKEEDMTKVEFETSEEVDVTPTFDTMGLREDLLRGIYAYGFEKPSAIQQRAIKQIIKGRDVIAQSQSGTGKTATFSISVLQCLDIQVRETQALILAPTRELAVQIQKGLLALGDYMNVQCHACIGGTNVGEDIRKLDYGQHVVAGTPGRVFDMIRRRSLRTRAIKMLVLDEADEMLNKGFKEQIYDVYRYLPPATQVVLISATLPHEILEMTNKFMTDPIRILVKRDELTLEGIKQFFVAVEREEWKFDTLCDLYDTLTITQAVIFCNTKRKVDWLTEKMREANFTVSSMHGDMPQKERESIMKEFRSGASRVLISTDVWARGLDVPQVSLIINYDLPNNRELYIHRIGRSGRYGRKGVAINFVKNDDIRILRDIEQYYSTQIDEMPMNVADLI
UniProt Q9H4Z3: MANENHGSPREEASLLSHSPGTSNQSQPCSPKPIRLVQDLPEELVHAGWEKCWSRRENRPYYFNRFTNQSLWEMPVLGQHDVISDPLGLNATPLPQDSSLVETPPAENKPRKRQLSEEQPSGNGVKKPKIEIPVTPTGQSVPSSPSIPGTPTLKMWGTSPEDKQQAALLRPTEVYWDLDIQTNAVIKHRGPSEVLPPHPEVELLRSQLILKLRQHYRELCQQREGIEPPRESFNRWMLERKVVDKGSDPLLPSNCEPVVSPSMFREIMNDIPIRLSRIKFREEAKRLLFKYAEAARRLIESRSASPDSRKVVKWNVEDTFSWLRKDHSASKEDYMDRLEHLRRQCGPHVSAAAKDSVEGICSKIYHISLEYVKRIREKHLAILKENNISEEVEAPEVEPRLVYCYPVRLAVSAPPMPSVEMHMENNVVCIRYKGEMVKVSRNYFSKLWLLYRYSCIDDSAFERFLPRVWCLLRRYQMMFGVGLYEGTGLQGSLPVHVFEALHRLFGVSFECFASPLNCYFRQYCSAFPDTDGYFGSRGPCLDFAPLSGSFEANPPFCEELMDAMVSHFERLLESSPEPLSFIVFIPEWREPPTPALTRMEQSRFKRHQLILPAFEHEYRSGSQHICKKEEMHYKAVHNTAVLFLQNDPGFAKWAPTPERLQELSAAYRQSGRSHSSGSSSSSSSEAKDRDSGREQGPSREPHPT
UniProt P0CAP2: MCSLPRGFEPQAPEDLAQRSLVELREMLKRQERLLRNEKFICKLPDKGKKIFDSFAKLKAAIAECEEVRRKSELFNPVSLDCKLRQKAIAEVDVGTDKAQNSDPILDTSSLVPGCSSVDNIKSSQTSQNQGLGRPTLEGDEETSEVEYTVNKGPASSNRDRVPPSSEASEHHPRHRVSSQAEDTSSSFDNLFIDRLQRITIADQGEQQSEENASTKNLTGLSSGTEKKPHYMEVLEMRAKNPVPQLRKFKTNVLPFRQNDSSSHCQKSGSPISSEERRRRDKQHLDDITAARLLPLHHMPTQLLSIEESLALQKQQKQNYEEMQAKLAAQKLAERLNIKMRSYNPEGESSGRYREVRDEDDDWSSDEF
UniProt O15047: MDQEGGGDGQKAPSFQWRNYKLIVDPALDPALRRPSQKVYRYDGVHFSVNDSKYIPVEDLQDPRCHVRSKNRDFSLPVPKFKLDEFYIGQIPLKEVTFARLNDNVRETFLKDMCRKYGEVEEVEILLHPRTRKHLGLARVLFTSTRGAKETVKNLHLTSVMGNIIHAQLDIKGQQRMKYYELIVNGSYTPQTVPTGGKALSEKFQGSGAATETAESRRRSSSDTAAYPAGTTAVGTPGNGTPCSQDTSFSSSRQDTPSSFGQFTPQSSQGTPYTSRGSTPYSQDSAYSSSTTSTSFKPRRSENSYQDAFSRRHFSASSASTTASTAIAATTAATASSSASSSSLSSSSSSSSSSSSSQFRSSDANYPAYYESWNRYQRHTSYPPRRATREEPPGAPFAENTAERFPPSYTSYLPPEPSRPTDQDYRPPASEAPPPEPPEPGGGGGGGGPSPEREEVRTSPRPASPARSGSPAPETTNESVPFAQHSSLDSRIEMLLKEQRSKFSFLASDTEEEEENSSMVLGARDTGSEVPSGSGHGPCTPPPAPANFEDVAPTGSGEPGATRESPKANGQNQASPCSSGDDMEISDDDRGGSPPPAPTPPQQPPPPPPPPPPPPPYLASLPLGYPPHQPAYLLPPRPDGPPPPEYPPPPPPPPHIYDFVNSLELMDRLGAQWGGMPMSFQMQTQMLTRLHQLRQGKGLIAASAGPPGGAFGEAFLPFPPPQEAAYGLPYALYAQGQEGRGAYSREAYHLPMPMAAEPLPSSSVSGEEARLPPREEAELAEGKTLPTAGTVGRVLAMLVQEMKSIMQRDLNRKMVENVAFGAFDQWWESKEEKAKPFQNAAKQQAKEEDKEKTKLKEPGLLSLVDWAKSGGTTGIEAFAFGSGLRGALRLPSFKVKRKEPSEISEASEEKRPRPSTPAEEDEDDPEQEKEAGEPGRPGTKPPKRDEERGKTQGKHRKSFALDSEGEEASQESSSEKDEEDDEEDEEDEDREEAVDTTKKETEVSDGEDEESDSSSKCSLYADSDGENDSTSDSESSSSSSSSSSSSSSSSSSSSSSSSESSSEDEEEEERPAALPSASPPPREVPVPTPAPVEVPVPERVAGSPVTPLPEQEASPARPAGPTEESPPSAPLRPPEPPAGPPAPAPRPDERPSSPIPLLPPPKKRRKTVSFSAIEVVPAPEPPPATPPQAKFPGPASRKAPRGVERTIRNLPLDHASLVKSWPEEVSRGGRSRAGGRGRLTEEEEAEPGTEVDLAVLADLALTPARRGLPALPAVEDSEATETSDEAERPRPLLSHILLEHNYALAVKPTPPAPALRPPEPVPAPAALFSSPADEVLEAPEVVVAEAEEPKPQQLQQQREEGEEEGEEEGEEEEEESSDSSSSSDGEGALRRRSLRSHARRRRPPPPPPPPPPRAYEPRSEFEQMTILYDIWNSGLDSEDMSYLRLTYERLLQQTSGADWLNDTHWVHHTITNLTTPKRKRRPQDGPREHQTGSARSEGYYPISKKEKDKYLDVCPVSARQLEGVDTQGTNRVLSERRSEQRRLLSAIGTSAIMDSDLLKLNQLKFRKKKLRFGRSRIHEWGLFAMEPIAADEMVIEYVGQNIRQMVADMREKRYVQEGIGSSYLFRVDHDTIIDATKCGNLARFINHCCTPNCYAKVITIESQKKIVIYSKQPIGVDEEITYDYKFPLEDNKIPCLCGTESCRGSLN
UniProt Q9UNQ2: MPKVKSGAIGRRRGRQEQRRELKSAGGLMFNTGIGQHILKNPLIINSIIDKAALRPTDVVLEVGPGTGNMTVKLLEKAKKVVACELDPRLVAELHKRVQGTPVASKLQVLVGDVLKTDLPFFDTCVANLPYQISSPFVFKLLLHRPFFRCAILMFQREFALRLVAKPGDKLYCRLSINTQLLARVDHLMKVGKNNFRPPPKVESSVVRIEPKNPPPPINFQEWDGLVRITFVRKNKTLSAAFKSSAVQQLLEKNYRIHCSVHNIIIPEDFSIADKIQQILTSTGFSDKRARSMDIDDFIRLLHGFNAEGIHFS
UniProt O94992: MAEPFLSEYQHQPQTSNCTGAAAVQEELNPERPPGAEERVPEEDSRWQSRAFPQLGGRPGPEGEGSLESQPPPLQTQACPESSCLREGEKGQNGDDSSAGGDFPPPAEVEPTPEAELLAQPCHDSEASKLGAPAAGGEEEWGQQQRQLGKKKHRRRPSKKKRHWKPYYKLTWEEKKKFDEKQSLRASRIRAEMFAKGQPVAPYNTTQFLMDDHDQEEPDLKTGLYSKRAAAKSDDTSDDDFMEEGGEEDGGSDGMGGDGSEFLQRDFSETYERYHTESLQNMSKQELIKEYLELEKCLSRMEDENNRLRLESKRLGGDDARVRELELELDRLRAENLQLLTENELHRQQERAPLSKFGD
UniProt Q6NSI4: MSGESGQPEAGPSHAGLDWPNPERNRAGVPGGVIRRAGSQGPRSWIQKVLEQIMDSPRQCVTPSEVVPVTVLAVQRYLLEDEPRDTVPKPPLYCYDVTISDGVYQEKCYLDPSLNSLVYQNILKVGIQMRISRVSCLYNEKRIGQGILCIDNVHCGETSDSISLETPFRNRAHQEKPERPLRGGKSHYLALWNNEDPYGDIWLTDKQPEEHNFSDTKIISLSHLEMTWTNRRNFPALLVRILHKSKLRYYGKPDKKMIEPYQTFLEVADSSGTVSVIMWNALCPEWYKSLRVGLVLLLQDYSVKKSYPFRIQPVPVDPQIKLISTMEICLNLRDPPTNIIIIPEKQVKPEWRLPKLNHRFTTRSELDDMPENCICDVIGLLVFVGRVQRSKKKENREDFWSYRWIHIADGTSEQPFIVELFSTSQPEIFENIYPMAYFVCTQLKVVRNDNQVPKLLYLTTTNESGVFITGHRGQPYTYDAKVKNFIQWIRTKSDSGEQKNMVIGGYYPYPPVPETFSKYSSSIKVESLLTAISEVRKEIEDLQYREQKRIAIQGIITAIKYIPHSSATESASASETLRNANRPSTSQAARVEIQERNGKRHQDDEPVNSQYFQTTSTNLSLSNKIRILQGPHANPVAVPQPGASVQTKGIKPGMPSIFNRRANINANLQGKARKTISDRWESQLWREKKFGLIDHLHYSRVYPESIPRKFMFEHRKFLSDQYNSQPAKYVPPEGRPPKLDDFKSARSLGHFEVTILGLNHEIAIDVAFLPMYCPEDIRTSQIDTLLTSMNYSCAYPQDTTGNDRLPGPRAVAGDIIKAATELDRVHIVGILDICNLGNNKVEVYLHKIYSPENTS
UniProt Q13426: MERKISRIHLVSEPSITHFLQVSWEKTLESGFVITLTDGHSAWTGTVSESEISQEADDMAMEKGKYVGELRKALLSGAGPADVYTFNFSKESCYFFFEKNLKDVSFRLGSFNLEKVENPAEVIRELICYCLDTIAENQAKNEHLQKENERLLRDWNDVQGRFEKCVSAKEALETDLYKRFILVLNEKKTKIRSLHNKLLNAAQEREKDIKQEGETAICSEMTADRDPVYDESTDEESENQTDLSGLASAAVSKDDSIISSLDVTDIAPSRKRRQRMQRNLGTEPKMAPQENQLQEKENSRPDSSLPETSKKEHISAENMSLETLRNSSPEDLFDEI
UniProt Q86U44: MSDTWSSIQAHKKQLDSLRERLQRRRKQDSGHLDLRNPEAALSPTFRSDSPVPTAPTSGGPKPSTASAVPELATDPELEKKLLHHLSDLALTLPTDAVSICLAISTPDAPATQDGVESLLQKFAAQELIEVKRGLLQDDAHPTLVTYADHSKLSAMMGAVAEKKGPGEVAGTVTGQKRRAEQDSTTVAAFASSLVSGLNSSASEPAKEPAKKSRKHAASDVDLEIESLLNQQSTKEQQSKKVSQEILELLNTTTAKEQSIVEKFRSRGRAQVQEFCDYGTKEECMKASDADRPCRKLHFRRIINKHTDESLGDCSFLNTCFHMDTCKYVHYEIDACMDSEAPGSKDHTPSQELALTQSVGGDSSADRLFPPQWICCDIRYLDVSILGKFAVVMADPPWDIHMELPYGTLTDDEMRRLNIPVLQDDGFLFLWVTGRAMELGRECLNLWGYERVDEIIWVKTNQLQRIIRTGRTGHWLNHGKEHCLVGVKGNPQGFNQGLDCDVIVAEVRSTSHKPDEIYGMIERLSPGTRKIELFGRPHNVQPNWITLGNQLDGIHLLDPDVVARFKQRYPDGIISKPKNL

Target: ALKBH5-Strep II-HA (human) (UniProt Q6P6C2)
Assay: affinity purification with mass spectrometry; Strep II-tagged bait captured on StrepTactinXT beads from 293T total lysate, 4 h at 4°C, with RNase inhibitor (-RNase A) or with 2 μg/ml RNase A; washes with 350 mM KCl; LC-MS/MS; against Strep II-eGFP control

binding | Substance
binds | KRR1 (from UniProt Q13601 1-381)
binds | MAGOH (from UniProt P61326 1-146)
binds | MAK16 (from UniProt Q9BXY0 1-300)
binds | SRSF9 (from UniProt Q13242 1-221)
binds | eIF4A3 (from UniProt P38919 1-411)

Target: MAC-PCIF1 (HA-Strep II-BirA*-PCIF1) (human) (UniProt Q9H4Z3)
Assay: as above

binding | Substance
binds | DNA helicase RECQ5 (from UniProt O94762 1-991) (enzyme)
binds | GINL1A (from UniProt P0CAP2 1-368)

Target: MAC-PCIF1 (HA-Strep II-BirA*-PCIF1) (human) (UniProt Q9H4Z3)
Assay: proximity labelling; BioID: BirA*-fused bait induced with 200 ng/ml dox in stable 293T cells, 50 μM biotin for 24 h, streptavidin bead purification of biotinylated proteins, LC-MS/MS; hits filtered by Limma (>4-fold, adjusted P < 0.01) and SAINT (score >0.74) against BirA* and NLS-BirA* controls

binding | Substance
binds | DNA helicase RECQ5 (from UniProt O94762 1-991) (enzyme)
binds | ICE1 (from UniProt Q9Y2F5 1-2266)
binds | INT4 (from UniProt Q96HW7 1-963)
binds | INT6 (from UniProt Q9UL03 1-887)
binds | PCF11 (from UniProt O94913 1-1555)
binds | RPRD2 (from UniProt Q5VT52 1-1461)
binds | SETD1A (from UniProt O15047 1-1707) (enzyme)
binds | SETD1B (from UniProt Q9UPS6 1-1966) (enzyme)

Target: T1, METTL16, C-terminal BirA* fusion (human) (UniProt Q86W50)
T1 sequence: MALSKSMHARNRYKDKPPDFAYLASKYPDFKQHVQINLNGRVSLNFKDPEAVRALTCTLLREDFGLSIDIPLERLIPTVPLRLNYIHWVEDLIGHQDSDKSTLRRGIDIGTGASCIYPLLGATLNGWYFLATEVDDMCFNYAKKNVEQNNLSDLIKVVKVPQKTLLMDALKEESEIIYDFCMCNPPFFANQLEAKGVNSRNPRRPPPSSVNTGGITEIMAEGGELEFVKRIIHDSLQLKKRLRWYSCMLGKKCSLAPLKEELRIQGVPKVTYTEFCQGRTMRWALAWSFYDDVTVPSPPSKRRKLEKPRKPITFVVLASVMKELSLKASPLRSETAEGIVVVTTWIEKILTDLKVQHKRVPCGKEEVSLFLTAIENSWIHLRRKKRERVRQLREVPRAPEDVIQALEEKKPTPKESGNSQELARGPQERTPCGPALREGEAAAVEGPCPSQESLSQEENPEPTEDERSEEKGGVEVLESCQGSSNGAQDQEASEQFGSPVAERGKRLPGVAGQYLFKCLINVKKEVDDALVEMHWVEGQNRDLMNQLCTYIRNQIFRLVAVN
Assay: as above

binding | Substance
binds | Cyclin-T2 (from UniProt O60583 1-730)
binds | DIMT1 (from UniProt Q9UNQ2 1-313)
binds | HEXIM1 (from UniProt O94992 1-359)

Target: FTO, N-terminal BirA* fusion (human) (UniProt Q9C0B1)
Assay: as above

binding | Substance
binds | ICE1 (from UniProt Q9Y2F5 1-2266)
binds | RADX (from UniProt Q6NSI4 1-855)
binds | XRCC4 (from UniProt Q13426 1-336)
binds | dihydrouridine tRNA synthase DUS2L (from UniProt Q9NX74 1-493) (enzyme)

Target: ALKBH5, BirA* fusion (human) (UniProt Q6P6C2)
Assay: as above

binding | Substance
binds | DDX39B (from UniProt Q13838 1-428)
binds | KRR1 (from UniProt Q13601 1-381)
binds | MAK16 (from UniProt Q9BXY0 1-300)
binds | SRSF9 (from UniProt Q13242 1-221)

Target: METTL3, C-terminal BirA* fusion (human) (UniProt Q86U44)
Assay: as above

binding | Substance
binds | STAT5B (from UniProt P51692 1-787)
binds | ZC3H13 (from UniProt Q5T200 1-1668)

Target: METTL3, N-terminal BirA* fusion (human) (UniProt Q86U44)
Assay: as above

binding | Substance
binds | STAT5B (from UniProt P51692 1-787)
binds | ZC3H13 (from UniProt Q5T200 1-1668)

These are yes or no findings as the source states them, for the method shown. Binding seen in cells or lysates may run through a third protein. A yes stands for co-enrichment or nearness to the bait. Other partners may have been found. For part of these data: Tags and fused reporters may be left off the sequences shown.
